Results as given in paper PMC7948425.
Results are given in words; binding and its absence hold for the method and conditions named. Binding seen in cells or lysates may run through a third protein. A yes stands for co-enrichment or nearness to the bait. Other partners may have been found. For some of these results: Sequences can lack the tags named with a protein.

By UniProt entry, the sequences of proteins in these tests, tags left out.
UniProt Q8N3U4: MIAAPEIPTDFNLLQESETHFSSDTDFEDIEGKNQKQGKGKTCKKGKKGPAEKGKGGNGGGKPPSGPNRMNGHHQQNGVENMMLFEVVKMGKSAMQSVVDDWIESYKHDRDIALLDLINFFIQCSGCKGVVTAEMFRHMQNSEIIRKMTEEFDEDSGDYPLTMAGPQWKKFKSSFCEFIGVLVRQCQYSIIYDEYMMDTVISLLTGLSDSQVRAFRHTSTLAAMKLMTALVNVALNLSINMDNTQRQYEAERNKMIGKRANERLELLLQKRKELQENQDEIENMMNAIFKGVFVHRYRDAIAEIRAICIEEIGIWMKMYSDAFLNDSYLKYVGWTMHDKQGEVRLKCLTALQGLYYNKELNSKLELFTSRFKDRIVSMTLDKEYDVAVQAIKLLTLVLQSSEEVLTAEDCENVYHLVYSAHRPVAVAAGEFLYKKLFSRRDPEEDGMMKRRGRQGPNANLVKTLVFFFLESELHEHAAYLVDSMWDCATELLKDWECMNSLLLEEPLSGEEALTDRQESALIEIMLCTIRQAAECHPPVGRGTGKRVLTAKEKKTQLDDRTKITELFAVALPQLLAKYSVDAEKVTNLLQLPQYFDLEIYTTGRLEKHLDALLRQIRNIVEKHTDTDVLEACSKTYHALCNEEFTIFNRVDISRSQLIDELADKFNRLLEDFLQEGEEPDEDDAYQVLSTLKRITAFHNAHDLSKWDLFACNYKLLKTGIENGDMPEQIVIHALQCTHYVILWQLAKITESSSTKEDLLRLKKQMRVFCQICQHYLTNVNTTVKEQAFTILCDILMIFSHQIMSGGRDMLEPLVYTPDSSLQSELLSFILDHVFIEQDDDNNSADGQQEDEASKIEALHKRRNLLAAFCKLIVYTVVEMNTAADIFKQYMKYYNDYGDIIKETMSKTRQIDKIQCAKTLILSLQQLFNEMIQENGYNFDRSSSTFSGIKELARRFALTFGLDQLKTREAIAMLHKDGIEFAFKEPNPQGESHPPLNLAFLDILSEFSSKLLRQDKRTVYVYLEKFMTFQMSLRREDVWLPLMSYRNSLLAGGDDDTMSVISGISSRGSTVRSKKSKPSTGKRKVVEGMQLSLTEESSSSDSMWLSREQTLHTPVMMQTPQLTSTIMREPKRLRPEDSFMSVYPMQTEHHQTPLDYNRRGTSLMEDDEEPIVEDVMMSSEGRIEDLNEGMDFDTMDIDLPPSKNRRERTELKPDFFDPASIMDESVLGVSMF
UniProt Q9UQE7: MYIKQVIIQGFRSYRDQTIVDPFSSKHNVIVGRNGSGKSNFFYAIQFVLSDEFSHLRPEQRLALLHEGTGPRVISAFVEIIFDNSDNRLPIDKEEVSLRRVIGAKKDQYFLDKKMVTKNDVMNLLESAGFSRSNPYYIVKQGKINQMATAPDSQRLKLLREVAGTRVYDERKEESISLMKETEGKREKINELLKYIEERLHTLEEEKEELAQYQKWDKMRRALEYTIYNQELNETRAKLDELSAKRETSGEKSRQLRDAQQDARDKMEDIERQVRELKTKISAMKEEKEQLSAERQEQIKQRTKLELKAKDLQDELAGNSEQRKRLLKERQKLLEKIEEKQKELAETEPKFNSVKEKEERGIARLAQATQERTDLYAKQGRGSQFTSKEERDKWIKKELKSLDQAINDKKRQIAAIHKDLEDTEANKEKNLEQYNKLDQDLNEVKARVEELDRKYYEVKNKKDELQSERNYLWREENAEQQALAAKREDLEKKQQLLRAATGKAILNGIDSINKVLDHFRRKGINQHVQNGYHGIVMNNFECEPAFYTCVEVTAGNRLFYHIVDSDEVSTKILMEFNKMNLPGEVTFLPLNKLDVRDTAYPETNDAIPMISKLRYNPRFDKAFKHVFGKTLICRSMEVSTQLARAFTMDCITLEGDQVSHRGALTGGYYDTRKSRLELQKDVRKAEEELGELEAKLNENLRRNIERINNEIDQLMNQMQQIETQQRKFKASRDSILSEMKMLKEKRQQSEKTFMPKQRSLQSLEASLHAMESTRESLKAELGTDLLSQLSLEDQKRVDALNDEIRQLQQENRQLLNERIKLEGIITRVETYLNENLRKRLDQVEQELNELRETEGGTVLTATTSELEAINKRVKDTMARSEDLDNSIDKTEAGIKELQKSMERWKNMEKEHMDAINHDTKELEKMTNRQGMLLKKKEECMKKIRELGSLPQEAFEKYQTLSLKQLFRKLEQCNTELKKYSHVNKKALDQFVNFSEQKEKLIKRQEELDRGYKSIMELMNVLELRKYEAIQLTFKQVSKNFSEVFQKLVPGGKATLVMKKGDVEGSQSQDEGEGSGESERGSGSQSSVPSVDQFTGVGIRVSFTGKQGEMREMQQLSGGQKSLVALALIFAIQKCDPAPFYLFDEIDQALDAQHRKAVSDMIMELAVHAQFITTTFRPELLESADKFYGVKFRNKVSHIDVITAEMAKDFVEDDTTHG

Key:
Assay in all cases: affinity purification with mass spectrometry; dual-affinity purification (FLAG, then streptavidin) of dual epitope-tagged endogenous cohesin subunits from HCT116 nuclear extracts, mass spectrometry; primary data in ref. 13
[1] = molecular target: STAG2 with FLAG/streptavidin binding peptide dual epitope tag, from the gene-edited endogenous allele (human (endogenous in HCT116)) (UniProt Q8N3U4)
[2] = molecular target: T1, WAPL with FLAG/streptavidin binding peptide dual epitope tag, from the gene-edited endogenous allele (human (endogenous in HCT116)) (UniProt Q7Z5K2)
T1 sequence: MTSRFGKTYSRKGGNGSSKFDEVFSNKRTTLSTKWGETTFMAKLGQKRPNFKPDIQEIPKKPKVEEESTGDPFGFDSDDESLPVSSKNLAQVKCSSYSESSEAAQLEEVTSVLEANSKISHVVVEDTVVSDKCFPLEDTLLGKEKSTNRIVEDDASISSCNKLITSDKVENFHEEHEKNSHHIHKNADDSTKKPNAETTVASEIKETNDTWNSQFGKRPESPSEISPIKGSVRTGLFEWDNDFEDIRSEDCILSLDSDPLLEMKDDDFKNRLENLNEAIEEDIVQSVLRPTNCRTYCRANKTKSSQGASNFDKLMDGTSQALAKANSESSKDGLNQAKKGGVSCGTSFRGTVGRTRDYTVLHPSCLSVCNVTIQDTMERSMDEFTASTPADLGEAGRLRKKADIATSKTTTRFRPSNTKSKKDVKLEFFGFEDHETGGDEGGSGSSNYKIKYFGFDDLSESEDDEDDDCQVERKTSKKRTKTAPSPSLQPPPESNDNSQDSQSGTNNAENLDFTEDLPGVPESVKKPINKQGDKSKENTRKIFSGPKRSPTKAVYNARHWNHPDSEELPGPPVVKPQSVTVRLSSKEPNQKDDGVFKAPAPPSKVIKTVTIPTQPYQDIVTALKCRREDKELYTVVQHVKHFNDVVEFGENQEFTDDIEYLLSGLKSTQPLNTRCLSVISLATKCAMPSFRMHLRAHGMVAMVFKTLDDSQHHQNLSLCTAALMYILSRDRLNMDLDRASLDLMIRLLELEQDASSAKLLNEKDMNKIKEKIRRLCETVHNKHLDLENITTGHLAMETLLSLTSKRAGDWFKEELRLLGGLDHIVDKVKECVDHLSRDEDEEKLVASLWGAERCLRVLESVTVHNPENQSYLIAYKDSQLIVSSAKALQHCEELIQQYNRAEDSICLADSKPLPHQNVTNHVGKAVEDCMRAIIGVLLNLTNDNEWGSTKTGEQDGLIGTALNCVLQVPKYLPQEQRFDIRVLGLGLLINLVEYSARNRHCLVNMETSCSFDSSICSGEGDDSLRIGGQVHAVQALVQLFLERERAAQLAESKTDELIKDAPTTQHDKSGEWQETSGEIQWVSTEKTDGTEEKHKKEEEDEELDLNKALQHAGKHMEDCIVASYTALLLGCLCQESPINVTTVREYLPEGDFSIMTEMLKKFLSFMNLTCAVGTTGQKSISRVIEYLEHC

[3] = molecular target: T2, SMC1A with FLAG/streptavidin binding peptide dual epitope tag, from the gene-edited endogenous allele (human (endogenous in HCT116)) (UniProt Q14683)
T2 sequence: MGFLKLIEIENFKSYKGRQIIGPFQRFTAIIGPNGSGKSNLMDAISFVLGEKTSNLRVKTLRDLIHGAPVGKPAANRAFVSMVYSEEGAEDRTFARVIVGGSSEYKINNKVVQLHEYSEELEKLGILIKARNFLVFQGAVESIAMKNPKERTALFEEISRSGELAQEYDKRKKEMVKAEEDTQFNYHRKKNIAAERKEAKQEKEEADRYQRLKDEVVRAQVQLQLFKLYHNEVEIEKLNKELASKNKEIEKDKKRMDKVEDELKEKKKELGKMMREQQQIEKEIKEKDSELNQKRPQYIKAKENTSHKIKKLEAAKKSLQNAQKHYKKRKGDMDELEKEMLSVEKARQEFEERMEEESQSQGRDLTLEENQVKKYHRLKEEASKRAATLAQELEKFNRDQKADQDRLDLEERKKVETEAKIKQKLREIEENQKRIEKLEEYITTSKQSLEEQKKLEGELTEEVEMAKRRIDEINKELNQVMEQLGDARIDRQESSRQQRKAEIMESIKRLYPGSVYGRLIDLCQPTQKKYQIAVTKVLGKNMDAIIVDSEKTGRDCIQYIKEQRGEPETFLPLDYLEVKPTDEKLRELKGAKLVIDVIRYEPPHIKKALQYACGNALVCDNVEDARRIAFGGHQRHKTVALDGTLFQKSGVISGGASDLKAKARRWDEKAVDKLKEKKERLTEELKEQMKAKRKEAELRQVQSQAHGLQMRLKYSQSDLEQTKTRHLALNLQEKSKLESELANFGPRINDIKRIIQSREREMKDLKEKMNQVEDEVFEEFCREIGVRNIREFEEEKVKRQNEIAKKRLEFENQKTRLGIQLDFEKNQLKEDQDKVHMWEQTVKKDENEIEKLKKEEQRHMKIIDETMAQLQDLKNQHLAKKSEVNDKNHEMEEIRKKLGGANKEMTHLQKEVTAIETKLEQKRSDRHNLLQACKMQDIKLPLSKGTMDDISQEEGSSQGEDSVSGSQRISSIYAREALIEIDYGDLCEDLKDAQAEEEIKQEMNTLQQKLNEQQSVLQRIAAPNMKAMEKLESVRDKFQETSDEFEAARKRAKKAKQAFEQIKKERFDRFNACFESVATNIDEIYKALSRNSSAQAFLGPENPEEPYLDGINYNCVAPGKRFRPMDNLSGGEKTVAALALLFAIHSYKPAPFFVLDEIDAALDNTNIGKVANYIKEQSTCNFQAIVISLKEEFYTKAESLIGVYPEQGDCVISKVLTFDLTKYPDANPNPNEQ

[4] = molecular target: SMC3 with FLAG/streptavidin binding peptide dual epitope tag, from the gene-edited endogenous allele (human (endogenous in HCT116)) (UniProt Q9UQE7)

Measured: binding

B1: Ubiquitin-Specific Protease 13 (USP13), endogenous (enzyme, UniProt Q92995 1-863)
chain: MQRRGALFGMPGGSGGRKMAAGDIGELLVPHMPTIRVPRSGDRVYKNECAFSYDSPNSEGGLYVCMNTFLAFGREHVERHFRKTGQSVYMHLKRHVREKVRGASGGALPKRRNSKIFLDLDTDDDLNSDDYEYEDEAKLVIFPDHYEIALPNIEELPALVTIACDAVLSSKSPYRKQDPDTWENELPVSKYANNLTQLDNGVRIPPSGWKCARCDLRENLWLNLTDGSVLCGKWFFDSSGGNGHALEHYRDMGYPLAVKLGTITPDGADVYSFQEEEPVLDPHLAKHLAHFGIDMLHMHGTENGLQDNDIKLRVSEWEVIQESGTKLKPMYGPGYTGLKNLGNSCYLSSVMQAIFSIPEFQRAYVGNLPRIFDYSPLDPTQDFNTQMTKLGHGLLSGQYSKPPVKSELIEQVMKEEHKPQQNGISPRMFKAFVSKSHPEFSSNRQQDAQEFFLHLVNLVERNRIGSENPSDVFRFLVEERIQCCQTRKVRYTERVDYLMQLPVAMEAATNKDELIAYELTRREAEANRRPLPELVRAKIPFSACLQAFSEPENVDDFWSSALQAKSAGVKTSRFASFPEYLVVQIKKFTFGLDWVPKKFDVSIDMPDLLDINHLRARGLQPGEEELPDISPPIVIPDDSKDRLMNQLIDPSDIDESSVMQLAEMGFPLEACRKAVYFTGNMGAEVAFNWIIVHMEEPDFAEPLTMPGYGGAASAGASVFGASGLDNQPPEEIVAIITSMGFQRNQAIQALRATNNNLERALDWIFSHPEFEEDSDFVIEMENNANANIISEAKPEGPRVKDGSGTYELFAFISHMGTSTMSGHYICHIKKEGRWVIYNDHKVCASERPPKDLGYMYFYRRIPS
binds: all assays above
